Measurements published in article PMC11780131.
Results are given in words; binding and its absence hold for the method and conditions named. In cells and extracts the contact can be indirect. Some entries that bind do so weakly or less than the wild type. Where a sequence is shown, tags or fusion partners need not be part of it.

Molecular target: T1, enhanced green fluorescent protein-tagged mouse 2B4 (m2B4-EGFP) (mouse) (UniProt Q07763)
T1 sequence: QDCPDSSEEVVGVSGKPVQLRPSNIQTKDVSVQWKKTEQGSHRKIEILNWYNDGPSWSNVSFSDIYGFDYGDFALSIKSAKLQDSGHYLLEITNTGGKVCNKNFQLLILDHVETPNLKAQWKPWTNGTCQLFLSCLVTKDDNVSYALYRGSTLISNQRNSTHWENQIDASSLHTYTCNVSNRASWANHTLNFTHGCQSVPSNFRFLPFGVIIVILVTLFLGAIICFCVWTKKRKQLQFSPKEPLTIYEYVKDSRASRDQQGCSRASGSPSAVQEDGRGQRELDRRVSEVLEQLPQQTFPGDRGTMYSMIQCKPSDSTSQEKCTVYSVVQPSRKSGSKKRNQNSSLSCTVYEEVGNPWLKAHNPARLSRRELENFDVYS
Experiment: co-IP; 2D12 cells expressing 2B4-EGFP and Fyn-HaloTag, not transduced or transduced with SAP, stimulated by mCD48-deleted or mCD48-expressing EL-4 cells prepulsed by MCC88-103; lysis buffer 50 mM Tris-HCl, 50 mM NaCl, 5 mM EDTA, 1% NP-40; immunoprecipitated for 2B4 by anti-GFP (RQ2); blotted with anti-SAP, anti-Fyn

binding: binds
B1: SLAM-associated protein (SAP) (protein, UniProt O88890 1-126)
chain: MDAVTVYHGKISRETGEKLLLATGLDGSYLLRDSESVPGVYCLCVLYQGYIYTYRVSQTETGSWSAETAPGVHKRFFRKVKNLISAFQKPDQGIVTPLQYPVEKSSGRGPQAPTGRRDSDICLNAP
